In PMC10561725:
These are yes or no findings as the source states them, for the method shown. In cells and extracts the contact can be indirect. A yes stands for co-enrichment or nearness to the bait. Other partners may have been found.

Sequences of proteins named here, by UniProt entry; tags and fusion partners are left off.
UniProt P11940: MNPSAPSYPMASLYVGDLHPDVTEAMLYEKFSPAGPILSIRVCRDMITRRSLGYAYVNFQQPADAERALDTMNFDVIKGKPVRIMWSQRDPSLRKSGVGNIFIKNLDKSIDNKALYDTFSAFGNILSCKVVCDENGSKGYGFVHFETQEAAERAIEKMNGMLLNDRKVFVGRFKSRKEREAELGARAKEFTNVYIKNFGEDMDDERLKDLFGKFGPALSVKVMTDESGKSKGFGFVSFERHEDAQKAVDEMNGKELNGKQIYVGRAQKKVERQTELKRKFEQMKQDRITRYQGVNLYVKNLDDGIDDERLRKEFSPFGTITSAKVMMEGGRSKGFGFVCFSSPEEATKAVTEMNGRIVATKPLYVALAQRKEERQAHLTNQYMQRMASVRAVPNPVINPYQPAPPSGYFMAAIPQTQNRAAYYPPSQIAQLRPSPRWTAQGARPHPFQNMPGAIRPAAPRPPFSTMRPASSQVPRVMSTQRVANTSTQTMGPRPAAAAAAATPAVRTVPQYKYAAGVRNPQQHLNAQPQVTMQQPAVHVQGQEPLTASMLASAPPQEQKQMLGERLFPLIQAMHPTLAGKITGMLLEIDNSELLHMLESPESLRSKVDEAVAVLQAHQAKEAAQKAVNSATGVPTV
UniProt O15047: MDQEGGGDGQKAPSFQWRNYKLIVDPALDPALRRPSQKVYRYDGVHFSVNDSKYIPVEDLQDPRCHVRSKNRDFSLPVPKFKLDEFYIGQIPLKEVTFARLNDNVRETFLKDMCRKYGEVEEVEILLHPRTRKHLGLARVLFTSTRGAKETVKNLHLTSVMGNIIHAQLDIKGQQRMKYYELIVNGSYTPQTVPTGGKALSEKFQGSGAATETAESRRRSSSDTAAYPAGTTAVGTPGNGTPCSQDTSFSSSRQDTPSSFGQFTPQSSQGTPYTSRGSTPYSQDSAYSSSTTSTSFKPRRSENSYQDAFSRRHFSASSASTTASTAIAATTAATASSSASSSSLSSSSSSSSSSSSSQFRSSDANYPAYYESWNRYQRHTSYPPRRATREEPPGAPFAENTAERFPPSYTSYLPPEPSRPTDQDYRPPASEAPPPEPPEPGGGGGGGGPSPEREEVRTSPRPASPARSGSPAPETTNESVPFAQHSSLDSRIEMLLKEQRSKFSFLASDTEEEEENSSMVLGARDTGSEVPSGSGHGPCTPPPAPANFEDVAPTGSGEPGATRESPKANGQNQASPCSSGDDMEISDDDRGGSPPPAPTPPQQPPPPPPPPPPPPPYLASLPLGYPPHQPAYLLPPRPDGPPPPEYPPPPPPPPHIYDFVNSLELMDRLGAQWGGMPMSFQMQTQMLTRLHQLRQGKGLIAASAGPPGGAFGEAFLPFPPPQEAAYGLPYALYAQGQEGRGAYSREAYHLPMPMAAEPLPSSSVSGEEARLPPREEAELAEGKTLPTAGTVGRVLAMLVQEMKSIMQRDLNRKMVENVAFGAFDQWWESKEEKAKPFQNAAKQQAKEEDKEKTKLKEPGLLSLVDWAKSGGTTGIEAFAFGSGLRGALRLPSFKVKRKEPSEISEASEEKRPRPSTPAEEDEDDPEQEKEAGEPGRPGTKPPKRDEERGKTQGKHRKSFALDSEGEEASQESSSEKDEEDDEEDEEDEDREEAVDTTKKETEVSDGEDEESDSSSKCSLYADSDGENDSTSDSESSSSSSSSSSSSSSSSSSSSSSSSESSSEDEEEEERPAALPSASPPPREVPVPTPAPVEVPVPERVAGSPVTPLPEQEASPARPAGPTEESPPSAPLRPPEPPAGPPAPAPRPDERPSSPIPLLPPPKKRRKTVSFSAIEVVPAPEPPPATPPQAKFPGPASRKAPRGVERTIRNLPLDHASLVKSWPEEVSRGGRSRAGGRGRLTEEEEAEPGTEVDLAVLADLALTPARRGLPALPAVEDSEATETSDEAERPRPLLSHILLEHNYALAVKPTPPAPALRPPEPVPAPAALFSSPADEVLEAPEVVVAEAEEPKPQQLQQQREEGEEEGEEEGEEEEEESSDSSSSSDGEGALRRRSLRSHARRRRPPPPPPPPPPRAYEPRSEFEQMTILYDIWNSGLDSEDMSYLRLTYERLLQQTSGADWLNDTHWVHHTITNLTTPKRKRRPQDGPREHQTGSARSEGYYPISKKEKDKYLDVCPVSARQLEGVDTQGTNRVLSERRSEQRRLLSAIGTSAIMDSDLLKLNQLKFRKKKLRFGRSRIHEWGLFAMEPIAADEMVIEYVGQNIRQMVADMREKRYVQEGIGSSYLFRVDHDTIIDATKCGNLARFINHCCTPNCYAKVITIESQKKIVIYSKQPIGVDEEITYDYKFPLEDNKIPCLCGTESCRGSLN

Molecular target: FLAG-tagged polyadenylate-binding protein cytoplasmic 1 (UniProt P11940)
Assay: affinity purification with mass spectrometry; PLC cells transduced with FLAG-tagged PABPC1 vector or empty vector; NP-40 buffer (150 mM NaCl, 1.5 mM MgCl2, 0.5% NP-40, 50 mM Tris-HCl pH 8.0); anti-FLAG antibody, Protein A magnetic beads, 4°C overnight; interacting proteins identified by MS

With “SET domain containing 1A (from UniProt O15047 1-1707)” the binding was “binds”.
